In series [1] the target is Mucin1 (MUC1) on A549 cells (UniProt P15941). The series can be described thus: flow cytometry. The conditions noted are these: A549 cells, 40 pmol in 250 uL, no binding to MUC1-negative HepG2, PBS, 2x10^5 cells in 250 uL, 40 pmol DNA, 30 min with gentle shaking (temperature not stated), competition at 37 C, 3 PBS washes, protein on the cell surface, folded or branched DNA. Background: Flow cytometry measures light scatter and fluorescence of single cells or particles in a stream.

Amino acid sequences for entries named in this document (tags omitted). A change or cut given only in a name is not applied to a line headed by its entry.
UniProt P15941: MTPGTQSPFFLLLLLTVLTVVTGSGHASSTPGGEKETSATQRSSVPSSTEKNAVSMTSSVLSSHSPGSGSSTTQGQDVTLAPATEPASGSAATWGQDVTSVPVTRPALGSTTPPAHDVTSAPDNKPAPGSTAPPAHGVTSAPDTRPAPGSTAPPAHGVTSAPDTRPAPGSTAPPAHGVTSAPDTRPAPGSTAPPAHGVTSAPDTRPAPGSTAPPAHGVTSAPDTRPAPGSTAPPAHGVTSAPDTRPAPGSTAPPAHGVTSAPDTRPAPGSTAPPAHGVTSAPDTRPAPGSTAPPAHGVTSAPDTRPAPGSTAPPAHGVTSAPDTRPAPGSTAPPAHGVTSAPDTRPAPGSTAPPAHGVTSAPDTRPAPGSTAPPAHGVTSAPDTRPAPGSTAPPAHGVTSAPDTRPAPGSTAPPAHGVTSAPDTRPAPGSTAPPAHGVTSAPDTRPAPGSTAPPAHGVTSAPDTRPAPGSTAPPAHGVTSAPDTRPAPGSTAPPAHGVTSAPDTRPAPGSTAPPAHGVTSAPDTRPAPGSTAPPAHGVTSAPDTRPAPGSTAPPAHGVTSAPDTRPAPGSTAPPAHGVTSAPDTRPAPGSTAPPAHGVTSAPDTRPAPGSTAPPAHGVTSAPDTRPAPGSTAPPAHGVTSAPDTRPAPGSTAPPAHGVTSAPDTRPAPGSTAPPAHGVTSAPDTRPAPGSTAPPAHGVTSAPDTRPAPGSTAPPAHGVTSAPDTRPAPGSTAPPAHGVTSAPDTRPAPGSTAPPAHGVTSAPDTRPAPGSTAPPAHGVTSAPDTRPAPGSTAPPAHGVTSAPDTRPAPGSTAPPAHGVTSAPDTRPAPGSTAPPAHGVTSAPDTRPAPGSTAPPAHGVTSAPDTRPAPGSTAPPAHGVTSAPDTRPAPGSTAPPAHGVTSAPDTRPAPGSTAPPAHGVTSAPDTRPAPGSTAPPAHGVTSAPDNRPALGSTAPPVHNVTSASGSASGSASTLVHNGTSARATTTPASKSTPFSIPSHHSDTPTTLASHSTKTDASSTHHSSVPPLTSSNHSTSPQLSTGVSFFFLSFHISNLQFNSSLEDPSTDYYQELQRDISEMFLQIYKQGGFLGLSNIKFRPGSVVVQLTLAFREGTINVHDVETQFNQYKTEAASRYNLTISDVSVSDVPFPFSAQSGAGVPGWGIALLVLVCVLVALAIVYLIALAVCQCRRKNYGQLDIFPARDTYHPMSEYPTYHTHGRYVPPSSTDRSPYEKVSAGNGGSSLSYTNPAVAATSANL

The next series has as its system CD16 on PBMC. Description: flow cytometry. The conditions noted are these: PBMC, 40 pmol in 250 uL, no binding to CD16-negative Jurkat, PBS, 2x10^5 cells in 250 uL, 40 pmol DNA, 30 min with gentle shaking (temperature not stated), competition at 37 C, 3 PBS washes, protein on the cell surface, folded or branched DNA.

Construct, isoform or probe ends are uncertain for at least one entry. Results from cells or extracts need not show a direct contact.

As for “AACCGCCCAAATCCCTAAGAGTCGGACTGCAACCTATGCTATCGTTGATGTCTGTCCAAGCAACACAGACACACTACACACGCACA [MUC1 aptamer]”, the binding result in series [1] is on record as “binds”.
On to “CCACTGCGGGGGTCTATACGTGAGGAAGAAGTGG [CD16 aptamer]”, for which, in the series on CD16 on PBMC, the binding result is recorded as “binds”.

Source of the values: publication PMC6385031.
